Results from PMC12441119.
No constants are given. Whether binding was seen depends on the method and setting. For some assays here: In cells and extracts the contact can be indirect. Some results given as binding are weak or reduced against the parent protein; the word gives no strength. For some assays here: Where a sequence is shown, tags or fusion partners need not be part of it.

By UniProt entry, the sequences of proteins in these tests, tags left out. Where a name states a change or a piece, a line headed by the entry shows the natural chain unless it says otherwise.
UniProt Q96EP0: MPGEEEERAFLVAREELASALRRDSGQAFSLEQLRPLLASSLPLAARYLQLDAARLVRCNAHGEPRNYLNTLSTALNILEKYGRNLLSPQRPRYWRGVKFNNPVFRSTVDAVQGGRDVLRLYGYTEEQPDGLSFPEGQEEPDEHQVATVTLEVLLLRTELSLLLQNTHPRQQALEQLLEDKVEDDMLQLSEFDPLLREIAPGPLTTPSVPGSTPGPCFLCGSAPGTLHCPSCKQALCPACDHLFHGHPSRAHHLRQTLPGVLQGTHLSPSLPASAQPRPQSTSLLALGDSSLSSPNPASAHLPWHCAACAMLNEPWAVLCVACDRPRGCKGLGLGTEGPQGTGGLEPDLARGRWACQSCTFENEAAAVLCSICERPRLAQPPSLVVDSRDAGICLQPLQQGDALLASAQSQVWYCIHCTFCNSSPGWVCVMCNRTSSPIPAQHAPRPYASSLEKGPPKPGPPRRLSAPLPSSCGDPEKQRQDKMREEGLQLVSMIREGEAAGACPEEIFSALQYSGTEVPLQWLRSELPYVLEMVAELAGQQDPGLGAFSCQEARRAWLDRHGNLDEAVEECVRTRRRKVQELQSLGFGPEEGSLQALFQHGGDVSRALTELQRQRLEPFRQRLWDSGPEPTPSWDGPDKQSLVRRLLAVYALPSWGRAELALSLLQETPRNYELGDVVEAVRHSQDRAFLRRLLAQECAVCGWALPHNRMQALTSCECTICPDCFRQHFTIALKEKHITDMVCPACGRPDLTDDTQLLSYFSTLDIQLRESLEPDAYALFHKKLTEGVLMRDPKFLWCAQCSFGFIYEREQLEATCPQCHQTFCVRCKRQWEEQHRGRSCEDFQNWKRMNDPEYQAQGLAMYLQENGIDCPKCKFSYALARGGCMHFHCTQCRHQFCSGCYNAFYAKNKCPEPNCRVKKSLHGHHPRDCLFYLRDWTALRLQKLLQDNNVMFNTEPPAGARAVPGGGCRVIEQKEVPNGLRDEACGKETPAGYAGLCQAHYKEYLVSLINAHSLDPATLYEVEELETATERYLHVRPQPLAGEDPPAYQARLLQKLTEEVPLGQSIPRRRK

Experiments:
GFP-STK4 (human) = target: T1, GFP-STK4 (human) (UniProt Q13043); experiment: co-IP; HEK293T co-transfected with FLAG-HOIP and GFP-STK4 or mutants; lysate on anti-GFP antibody-agarose; blots with GFP and FLAG antibodies
T1 sequence: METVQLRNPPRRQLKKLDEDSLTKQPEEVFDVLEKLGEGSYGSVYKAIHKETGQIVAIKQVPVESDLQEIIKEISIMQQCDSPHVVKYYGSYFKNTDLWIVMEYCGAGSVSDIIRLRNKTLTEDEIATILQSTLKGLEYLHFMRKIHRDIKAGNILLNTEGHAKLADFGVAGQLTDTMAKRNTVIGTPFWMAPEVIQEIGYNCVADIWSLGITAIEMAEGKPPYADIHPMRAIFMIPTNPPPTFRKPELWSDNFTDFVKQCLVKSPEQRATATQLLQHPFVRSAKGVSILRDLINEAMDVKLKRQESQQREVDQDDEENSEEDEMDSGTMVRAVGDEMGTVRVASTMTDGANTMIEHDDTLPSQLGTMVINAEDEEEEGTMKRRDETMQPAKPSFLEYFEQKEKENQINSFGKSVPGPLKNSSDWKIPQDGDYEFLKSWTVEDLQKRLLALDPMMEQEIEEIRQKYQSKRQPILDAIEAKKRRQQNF

HOIP (residues 854–1072) = HOIP (residues 854–1072) (UniProt Q96EP0); experiment: AUC; sedimentation velocity, 42,000 rpm, 20 °C, c(s) distribution (SEDFIT); mixtures of HOIP RING2-LDD with STK4 KD at molar ratios 1:1 or 1:5; both purified

| binding (GFP-STK4 (human)) | binding (HOIP (residues 854–1072)) | Substance |
| --- | --- | --- |
| binds |  | FLAG-HOIP (from UniProt Q96EP0 1-1072) (enzyme) |
|  | no binding | HOIP (residues 854–1072) (from UniProt Q96EP0 854-1072) (domain or fragment) |
